Our source for the binding values is publication PMC6737228.

Assay [1] concerns the target T1, Transforming growth factor-β membrane associated protein (TIMAP), endogenous (human (endogenous in primary human glomerular ECs)) (UniProt Q96T49).
T1 sequence: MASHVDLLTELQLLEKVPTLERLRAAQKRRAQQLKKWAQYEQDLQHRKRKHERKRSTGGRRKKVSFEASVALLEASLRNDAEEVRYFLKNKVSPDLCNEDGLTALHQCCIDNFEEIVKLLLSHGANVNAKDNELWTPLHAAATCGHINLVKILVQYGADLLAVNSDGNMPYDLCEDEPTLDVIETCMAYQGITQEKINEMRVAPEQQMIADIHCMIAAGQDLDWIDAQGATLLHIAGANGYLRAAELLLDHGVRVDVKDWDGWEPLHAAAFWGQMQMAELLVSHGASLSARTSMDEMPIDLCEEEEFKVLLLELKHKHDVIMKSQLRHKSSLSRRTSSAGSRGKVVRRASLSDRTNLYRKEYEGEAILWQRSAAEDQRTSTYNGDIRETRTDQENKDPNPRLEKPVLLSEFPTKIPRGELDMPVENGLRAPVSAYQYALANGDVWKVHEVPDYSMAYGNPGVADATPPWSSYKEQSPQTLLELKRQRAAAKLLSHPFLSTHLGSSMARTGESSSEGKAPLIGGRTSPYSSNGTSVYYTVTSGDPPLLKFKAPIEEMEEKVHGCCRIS
Put plainly: co-IP; endogenous TIMAP immunoprecipitated from glomerular EC lysates with chicken anti-TIMAP IgY (control: nonimmune IgY), goat anti-chicken IgG beads, 4 °C; lysis buffer 50 mM Tris-HCl pH 7.5, 150 mM NaCl, 1.0% Nonidet P-40, 0.5% sodium deoxycholate; Western blot. Background: A western blot detects proteins with antibodies after separation by electrophoresis.

Assay [2] concerns the target T2, GST-TIMAP, recombinant purified (UniProt Q96T49).
T2 sequence: T1 sequence
Put plainly: pull-down; recombinant purified GST-TIMAP immobilised on GSH beads, incubated in vitro with recombinant purified His-MLC2 (also after incubation in kinase buffer with or without MLCK); anti-MLC2 and anti-pMLC2 Western blot; both purified.

Results are given in words; binding and its absence hold for the method and conditions named. A result given as binding can be weak or reduced; the word gives no strength. For some assays here: Tags and fused reporters may be left off the sequences shown. For some assays here: In cells and extracts the contact can be indirect.

For myosin light chain 2 (MLC2), endogenous, the binding entry in assay [1] is recorded as “binds”. For His-MLC2, recombinant purified, the binding result in assay [2] is on record as “binds”.
